Measured values as given in US20250262210A1, “LZTR1 MUTANT TUMORS AND METHODS THEREOF” (The Trustees of Columbia University in the City of New York, priority 2022, published 2025).
Results are given in words; binding and its absence hold for the method and conditions named. For some of these results: Binding seen in cells or lysates may run through a third protein. Some binding calls cover weakened binding; strength is not graded here. Where a sequence is shown, tags or fusion partners need not be part of it.

By UniProt entry, the sequences of proteins in these tests, tags left out. Residues count along the entry.
UniProt P35555, residues 45-2731: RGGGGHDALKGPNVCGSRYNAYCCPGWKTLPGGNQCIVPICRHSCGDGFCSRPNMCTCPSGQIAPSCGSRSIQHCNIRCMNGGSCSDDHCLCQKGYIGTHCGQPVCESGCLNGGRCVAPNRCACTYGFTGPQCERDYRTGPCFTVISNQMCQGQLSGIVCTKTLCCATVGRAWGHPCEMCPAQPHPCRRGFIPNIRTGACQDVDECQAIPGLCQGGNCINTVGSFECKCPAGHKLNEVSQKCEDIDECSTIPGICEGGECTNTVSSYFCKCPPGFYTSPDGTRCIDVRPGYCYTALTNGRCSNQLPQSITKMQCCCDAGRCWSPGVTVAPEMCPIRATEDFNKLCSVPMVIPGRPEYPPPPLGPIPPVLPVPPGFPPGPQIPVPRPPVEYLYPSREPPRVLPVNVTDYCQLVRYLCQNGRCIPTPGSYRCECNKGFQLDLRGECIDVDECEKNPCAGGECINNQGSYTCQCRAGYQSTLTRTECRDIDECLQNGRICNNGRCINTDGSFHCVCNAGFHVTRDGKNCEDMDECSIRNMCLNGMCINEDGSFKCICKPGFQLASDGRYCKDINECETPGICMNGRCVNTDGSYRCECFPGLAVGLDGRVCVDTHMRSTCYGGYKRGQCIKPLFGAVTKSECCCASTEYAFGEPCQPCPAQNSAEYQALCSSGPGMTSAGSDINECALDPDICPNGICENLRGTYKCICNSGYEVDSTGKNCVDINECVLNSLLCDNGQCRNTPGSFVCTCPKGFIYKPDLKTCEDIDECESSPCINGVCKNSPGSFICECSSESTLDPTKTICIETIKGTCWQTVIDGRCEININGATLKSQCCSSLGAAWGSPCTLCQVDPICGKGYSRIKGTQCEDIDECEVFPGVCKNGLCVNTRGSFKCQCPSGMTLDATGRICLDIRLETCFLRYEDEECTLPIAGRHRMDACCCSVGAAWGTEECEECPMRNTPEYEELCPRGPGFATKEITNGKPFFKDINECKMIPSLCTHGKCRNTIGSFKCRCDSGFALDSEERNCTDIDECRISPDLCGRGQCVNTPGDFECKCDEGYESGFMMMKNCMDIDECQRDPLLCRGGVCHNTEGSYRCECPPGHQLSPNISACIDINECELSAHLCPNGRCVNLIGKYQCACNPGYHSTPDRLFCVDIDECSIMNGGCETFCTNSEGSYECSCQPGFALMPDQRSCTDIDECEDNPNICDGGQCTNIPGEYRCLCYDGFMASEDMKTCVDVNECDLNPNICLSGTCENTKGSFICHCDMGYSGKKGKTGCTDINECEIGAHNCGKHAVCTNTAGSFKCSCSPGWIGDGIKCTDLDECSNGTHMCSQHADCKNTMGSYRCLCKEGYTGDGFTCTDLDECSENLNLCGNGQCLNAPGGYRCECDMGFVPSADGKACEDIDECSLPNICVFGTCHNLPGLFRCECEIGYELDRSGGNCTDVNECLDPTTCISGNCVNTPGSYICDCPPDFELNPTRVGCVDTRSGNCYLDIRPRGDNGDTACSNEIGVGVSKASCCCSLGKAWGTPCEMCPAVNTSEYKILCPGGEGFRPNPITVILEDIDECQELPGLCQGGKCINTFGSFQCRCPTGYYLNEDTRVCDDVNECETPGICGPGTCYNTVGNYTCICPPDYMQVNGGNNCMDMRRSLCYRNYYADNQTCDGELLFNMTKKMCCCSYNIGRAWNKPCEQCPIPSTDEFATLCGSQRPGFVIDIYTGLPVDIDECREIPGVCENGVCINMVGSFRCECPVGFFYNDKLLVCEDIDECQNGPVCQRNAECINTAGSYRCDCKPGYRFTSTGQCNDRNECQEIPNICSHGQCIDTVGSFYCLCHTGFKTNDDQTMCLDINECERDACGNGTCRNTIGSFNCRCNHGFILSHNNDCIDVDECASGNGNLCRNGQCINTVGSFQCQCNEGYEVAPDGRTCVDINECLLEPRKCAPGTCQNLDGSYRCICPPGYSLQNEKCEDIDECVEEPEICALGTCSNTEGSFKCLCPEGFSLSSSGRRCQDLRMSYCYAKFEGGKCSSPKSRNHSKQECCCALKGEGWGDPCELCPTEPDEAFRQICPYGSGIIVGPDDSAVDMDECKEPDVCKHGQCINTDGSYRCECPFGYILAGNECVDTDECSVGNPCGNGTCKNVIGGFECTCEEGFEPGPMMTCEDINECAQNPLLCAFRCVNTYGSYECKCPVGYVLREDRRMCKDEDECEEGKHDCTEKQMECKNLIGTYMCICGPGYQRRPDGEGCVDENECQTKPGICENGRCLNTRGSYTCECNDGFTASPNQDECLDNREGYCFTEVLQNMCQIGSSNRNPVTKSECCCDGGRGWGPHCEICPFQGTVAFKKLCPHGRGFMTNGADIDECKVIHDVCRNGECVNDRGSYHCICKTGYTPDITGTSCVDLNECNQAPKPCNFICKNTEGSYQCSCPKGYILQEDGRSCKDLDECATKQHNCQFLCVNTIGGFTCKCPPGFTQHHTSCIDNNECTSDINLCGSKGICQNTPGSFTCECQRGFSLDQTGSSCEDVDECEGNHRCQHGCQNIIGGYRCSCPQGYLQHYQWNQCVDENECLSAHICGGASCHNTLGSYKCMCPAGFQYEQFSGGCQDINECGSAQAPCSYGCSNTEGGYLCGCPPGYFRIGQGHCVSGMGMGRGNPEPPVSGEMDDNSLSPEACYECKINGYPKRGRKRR
UniProt O60318: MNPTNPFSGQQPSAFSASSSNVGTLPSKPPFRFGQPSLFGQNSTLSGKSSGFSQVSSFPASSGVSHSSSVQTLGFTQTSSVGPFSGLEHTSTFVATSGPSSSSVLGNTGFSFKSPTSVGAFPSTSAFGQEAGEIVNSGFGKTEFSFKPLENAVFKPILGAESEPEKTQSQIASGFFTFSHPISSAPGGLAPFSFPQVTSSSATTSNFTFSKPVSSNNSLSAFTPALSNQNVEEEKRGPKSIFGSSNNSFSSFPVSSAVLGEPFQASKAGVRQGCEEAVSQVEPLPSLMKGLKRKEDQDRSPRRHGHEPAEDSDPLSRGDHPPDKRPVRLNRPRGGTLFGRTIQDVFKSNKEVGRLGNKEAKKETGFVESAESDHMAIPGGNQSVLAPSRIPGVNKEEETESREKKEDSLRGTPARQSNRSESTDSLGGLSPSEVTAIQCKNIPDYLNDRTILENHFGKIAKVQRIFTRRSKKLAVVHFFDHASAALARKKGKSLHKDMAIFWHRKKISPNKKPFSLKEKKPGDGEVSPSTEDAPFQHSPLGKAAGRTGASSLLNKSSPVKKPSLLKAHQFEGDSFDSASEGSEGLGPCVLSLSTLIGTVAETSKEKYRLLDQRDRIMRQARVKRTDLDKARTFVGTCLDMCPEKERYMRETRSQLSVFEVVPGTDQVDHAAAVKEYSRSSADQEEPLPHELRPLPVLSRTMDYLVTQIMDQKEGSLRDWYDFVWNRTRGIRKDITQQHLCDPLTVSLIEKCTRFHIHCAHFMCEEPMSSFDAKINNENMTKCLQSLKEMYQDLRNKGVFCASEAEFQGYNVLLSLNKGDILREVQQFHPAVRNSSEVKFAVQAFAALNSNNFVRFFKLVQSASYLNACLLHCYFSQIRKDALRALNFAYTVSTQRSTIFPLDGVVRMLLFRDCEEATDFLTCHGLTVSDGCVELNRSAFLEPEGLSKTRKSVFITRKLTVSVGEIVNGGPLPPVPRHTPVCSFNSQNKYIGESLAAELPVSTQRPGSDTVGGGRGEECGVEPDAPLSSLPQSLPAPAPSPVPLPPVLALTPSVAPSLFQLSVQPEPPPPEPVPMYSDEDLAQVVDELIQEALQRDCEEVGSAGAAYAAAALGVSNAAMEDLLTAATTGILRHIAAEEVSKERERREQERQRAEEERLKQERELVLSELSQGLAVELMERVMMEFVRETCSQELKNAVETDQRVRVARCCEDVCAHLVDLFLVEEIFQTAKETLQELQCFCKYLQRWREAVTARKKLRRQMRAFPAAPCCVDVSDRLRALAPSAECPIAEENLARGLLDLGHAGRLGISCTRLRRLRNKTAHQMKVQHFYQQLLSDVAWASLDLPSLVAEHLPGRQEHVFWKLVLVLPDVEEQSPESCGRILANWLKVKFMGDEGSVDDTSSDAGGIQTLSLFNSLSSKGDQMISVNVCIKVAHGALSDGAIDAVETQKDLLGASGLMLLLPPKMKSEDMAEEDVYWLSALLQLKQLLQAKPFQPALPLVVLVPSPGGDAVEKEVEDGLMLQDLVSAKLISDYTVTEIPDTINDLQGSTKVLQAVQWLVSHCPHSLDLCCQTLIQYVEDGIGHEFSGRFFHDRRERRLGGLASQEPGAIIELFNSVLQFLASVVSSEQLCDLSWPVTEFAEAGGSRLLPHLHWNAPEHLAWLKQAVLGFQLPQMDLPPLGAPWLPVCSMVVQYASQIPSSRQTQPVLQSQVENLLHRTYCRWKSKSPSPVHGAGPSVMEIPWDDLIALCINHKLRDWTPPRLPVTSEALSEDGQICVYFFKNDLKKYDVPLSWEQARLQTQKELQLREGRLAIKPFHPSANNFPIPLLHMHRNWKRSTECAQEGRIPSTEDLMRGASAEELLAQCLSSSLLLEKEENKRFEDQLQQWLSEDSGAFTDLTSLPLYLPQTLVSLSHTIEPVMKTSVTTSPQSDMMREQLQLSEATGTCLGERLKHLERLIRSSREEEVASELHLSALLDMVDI
UniProt P29590: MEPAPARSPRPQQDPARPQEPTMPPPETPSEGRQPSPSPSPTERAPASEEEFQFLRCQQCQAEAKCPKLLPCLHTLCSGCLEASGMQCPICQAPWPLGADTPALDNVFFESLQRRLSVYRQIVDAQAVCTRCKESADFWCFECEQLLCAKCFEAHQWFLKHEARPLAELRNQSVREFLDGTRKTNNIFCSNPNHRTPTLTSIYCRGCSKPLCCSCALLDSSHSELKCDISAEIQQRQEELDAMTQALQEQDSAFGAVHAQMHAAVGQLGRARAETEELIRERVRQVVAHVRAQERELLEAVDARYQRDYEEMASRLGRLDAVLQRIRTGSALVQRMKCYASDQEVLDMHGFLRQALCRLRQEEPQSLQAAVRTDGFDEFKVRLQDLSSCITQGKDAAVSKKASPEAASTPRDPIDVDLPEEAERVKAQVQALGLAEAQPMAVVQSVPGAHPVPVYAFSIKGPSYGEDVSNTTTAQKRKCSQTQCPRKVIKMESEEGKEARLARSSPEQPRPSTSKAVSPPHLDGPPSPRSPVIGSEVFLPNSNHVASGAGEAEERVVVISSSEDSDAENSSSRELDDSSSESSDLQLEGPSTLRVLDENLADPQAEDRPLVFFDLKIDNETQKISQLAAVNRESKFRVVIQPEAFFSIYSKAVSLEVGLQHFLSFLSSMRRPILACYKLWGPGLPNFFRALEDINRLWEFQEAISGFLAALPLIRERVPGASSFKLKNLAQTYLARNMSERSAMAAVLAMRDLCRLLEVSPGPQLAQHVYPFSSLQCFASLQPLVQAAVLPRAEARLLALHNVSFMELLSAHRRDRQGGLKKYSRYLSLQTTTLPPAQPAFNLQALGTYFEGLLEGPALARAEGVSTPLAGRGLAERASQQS
UniProt P30530, residues 26-894: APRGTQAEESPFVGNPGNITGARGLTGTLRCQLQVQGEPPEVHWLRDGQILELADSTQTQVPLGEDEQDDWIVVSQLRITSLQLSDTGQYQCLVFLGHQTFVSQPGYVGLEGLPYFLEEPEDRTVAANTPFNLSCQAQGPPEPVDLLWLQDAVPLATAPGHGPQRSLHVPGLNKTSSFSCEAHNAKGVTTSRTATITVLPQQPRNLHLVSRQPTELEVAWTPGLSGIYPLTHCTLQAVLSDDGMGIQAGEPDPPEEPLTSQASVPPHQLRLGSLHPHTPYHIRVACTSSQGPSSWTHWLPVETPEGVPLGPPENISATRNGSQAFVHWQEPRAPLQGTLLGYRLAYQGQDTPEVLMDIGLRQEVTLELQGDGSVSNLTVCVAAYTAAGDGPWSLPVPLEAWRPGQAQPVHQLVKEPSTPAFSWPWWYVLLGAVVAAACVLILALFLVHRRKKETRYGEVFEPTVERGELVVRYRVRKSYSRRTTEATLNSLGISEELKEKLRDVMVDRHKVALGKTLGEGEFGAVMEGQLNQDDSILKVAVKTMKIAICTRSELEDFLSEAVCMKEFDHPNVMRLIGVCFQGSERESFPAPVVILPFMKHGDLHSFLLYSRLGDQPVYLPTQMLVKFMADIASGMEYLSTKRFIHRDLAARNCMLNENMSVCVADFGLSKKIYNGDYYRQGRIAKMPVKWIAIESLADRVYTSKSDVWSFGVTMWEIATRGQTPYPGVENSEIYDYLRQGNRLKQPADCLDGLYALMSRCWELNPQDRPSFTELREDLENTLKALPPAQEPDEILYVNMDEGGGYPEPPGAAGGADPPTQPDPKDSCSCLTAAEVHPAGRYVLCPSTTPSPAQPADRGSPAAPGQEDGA

Legend:
FASTKD2 (human) = biological target: T1, FASTKD2 (human) (UniProt Q9NYY8); assay: IP/MS, LZTR1 wild type-FLAG, U87
T1 sequence (looked up): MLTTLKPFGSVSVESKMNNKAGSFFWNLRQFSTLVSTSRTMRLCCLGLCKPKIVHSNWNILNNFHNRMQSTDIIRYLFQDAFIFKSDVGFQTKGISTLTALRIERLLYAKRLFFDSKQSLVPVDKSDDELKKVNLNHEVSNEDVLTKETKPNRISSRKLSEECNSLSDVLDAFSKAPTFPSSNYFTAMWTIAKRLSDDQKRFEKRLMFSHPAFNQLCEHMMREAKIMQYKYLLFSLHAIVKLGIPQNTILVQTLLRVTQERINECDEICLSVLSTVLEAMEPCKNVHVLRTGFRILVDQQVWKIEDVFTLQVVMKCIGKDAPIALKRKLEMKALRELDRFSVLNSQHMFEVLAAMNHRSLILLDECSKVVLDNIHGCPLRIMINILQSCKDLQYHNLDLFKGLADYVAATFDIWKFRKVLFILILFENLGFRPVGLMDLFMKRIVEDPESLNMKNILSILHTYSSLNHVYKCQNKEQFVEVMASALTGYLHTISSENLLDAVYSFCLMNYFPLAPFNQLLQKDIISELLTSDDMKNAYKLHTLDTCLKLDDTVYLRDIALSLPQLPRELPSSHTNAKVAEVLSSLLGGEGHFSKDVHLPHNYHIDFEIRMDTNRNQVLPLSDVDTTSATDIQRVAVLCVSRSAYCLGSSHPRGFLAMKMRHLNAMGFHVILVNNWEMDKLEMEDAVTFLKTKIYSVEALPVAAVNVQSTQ

FBN1 (human) = FBN1 (human) (UniProt P35555); assay: IP/MS, LZTR1 wild type-FLAG, U87
MCM3AP (human) = MCM3AP (human) (UniProt O60318); assay: IP/MS, LZTR1 wild type-FLAG, U87
PML (human) = PML (human) (UniProt P29590); assay: IP/MS, LZTR1 wild type-FLAG, U87
SHC1 (human) = biological target: T2, SHC1 (human) (UniProt P29353); assay: IP/MS, LZTR1 wild type-FLAG, U87
T2 sequence (looked up): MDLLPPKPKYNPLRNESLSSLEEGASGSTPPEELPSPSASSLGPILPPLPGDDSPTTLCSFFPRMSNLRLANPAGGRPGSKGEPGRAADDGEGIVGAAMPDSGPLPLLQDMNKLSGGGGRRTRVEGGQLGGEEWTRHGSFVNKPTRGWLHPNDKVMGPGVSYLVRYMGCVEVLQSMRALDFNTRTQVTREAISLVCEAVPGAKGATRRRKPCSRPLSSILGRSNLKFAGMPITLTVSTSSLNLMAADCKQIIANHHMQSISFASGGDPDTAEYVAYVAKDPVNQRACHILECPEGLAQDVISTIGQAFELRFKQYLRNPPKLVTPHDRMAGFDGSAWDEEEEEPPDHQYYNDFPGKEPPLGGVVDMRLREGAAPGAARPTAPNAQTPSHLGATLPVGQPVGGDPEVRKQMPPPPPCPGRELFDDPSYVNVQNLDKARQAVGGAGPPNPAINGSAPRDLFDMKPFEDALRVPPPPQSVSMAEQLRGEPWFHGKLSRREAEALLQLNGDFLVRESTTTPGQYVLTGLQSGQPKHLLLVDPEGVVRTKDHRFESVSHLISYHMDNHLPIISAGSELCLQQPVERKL

TMC04 (human) = biological target: T3, TMC04 (human) (UniProt Q5TGY1); assay: IP/MS, LZTR1 wild type-FLAG, U87
T3 sequence (looked up): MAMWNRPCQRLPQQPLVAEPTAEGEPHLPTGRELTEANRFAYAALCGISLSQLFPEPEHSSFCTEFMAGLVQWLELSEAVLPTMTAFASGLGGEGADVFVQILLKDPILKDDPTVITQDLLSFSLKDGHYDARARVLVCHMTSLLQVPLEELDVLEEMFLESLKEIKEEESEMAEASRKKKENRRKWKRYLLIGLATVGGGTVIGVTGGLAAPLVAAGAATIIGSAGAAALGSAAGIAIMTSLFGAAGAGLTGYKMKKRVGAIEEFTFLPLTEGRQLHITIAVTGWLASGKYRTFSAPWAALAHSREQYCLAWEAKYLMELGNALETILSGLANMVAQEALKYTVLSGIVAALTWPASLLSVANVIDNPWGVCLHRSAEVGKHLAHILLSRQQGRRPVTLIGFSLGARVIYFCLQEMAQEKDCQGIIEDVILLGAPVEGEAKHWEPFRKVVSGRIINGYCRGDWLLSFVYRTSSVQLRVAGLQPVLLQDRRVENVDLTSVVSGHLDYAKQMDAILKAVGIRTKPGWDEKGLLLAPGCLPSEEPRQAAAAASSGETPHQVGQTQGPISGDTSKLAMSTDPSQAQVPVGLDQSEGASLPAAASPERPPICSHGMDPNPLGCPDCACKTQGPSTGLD

VCAN (human) = VCAN (human) (UniProt P13611); assay: IP/MS, LZTR1 wild type-FLAG, U87
EGFR-GFP [1] = biological target: EGFR-GFP (UniProt P00533); assay: co-immunoprecipitation, HEK 293T cells (legend of FIGS. 2P-Q)
AXL-HA [2] = biological target: AXL-HA (UniProt P30530); assay: co-immunoprecipitation, HEK 293T cells (legend of FIGS. 2R-S)
EGFR-GFP [3] = biological target: EGFR-GFP (UniProt P00533); assay: co-immunoprecipitation with GFP antibody after EGF, HEK 293T cells
AXL-HA [4] = biological target: AXL-HA (UniProt P30530); assay: co-immunoprecipitation with HA antibody after Gas6, HEK 293T cells
AXL-HA [5] = biological target: AXL-HA (UniProt P30530); assay: summing up of the co-immunoprecipitations (discussion of Example 1)
EGFR-GFP [6] = biological target: EGFR-GFP (UniProt P00533); assay: as above
AXL-HA [7] = biological target: AXL-HA (UniProt P30530); assay: summing up of the co-immunoprecipitations (introduction of Example 1)
EGFR-GFP [8] = biological target: EGFR-GFP (UniProt P00533); assay: as above
EGFR-GFP [9] = biological target: EGFR-GFP (UniProt P00533); assay: co-immunoprecipitation (GFP antibody; FLAG affinity matrix), HEK 293T lysates, western blot
AXL-HA [10] = biological target: AXL-HA (UniProt P30530); assay: co-immunoprecipitation (HA affinity matrix; FLAG affinity matrix), HEK 293T lysates, western blot
ARAF (human), P10398 = biological target: T4, ARAF (human), P10398; assay: IP/MS, LZTR1 wild type-FLAG, U87; conditions: remark: other sources report otherwise
T4 chain: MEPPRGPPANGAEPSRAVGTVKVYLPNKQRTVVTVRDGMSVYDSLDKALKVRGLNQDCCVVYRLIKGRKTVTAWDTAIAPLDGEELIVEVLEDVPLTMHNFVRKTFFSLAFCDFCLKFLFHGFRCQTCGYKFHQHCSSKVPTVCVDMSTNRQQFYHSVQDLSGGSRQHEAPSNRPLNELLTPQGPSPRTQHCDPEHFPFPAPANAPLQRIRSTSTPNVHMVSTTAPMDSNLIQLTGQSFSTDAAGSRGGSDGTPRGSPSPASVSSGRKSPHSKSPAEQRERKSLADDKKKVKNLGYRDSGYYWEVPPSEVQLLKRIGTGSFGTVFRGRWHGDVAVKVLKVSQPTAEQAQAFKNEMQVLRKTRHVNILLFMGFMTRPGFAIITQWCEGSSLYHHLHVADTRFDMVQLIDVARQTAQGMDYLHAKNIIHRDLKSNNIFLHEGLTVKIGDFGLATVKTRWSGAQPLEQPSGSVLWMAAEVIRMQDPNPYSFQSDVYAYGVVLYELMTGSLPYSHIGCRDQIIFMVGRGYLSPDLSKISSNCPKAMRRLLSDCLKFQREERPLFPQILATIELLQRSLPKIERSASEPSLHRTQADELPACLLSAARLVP

EGFR-GFP [11] = biological target: EGFR-GFP (UniProt P00533); assay: GST pull-down, GST-LZTR1 deletion polypeptides with EGFR-GFP from HEK 293T lysates

Measured: binding

B1: LZTR1-FLAG (protein, human, UniProt Q8N653 1-840, looked up, not shown: small tags and cut ends)
chain: MAGPGSTGGQIGAAALAGGARSKVAPSVDFDHSCSDSVEYLTLNFGPFETVHRWRRLPPCDEFVGARRSKHTVVAYKDAIYVFGGDNGKTMLNDLLRFDVKDCSWCRAFTTGTPPAPRYHHSAVVYGSSMFVFGGYTGDIYSNSNLKNKNDLFEYKFATGQWTEWKIEGRLPVARSAHGATVYSDKLWIFAGYDGNARLNDMWTIGLQDRELTCWEEVAQSGEIPPSCCNFPVAVCRDKMFVFSGQSGAKITNNLFQFEFKDKTWTRIPTEHLLRGSPPPPQRRYGHTMVAFDRHLYVFGGAADNTLPNELHCYDVDFQTWEVVQPSSDSEVGGAEVPERACASEEVPTLTYEERVGFKKSRDVFGLDFGTTSAKQPTQPASELPSGRLFHAAAVISDAMYIFGGTVDNNIRSGEMYRFQFSCYPKCTLHEDYGRLWESRQFCDVEFVLGEKEECVQGHVAIVTARSRWLRRKITQARERLAQKLEQEAAPVPREAPGVAAGGARPPLLHVAIREAEARPFEVLMQFLYTDKIKYPRKGHVEDVLLIMDVYKLALSFQLCRLEQLCRQYIEASVDLQNVLVVCESAARLQLSQLKEHCLNFVVKESHFNQVIMMKEFERLSSPLIVEIVRRKQQPPPRTPLDQPVDIGTSLIQDMKAYLEGAGAEFCDITLLLDGHPRPAHKAILAARSSYFEAMFRSFMPEDGQVNISIGEMVPSRQAFESMLRYIYYGEVNMPPEDSLYLFAAPYYYGFYNNRLQAYCKQNLEMNVTVQNVLQILEAADKTQALDMKRHCLHIIVHQFTKVSKLPTLRSLSQQLLLDIIDSLASHISDKQCAELGADI
not listed: ARAF (human), P10398 | EGFR-GFP [11]
binds: all other assays above

B2: LZTR1-FLAG, Q8N653 1-840 (protein, human, UniProt Q8N653 1-840, looked up, not shown: small tags and cut ends)
chain: MAGPGSTGGQIGAAALAGGARSKVAPSVDFDHSCSDSVEYLTLNFGPFETVHRWRRLPPCDEFVGARRSKHTVVAYKDAIYVFGGDNGKTMLNDLLRFDVKDCSWCRAFTTGTPPAPRYHHSAVVYGSSMFVFGGYTGDIYSNSNLKNKNDLFEYKFATGQWTEWKIEGRLPVARSAHGATVYSDKLWIFAGYDGNARLNDMWTIGLQDRELTCWEEVAQSGEIPPSCCNFPVAVCRDKMFVFSGQSGAKITNNLFQFEFKDKTWTRIPTEHLLRGSPPPPQRRYGHTMVAFDRHLYVFGGAADNTLPNELHCYDVDFQTWEVVQPSSDSEVGGAEVPERACASEEVPTLTYEERVGFKKSRDVFGLDFGTTSAKQPTQPASELPSGRLFHAAAVISDAMYIFGGTVDNNIRSGEMYRFQFSCYPKCTLHEDYGRLWESRQFCDVEFVLGEKEECVQGHVAIVTARSRWLRRKITQARERLAQKLEQEAAPVPREAPGVAAGGARPPLLHVAIREAEARPFEVLMQFLYTDKIKYPRKGHVEDVLLIMDVYKLALSFQLCRLEQLCRQYIEASVDLQNVLVVCESAARLQLSQLKEHCLNFVVKESHFNQVIMMKEFERLSSPLIVEIVRRKQQPPPRTPLDQPVDIGTSLIQDMKAYLEGAGAEFCDITLLLDGHPRPAHKAILAARSSYFEAMFRSFMPEDGQVNISIGEMVPSRQAFESMLRYIYYGEVNMPPEDSLYLFAAPYYYGFYNNRLQAYCKQNLEMNVTVQNVLQILEAADKTQALDMKRHCLHIIVHQFTKVSKLPTLRSLSQQLLLDIIDSLASHISDKQCAELGADI
binds: ARAF (human), P10398

B3: GST-LZTR1 Kelch domain (protein, not shown: a dimerising Fc or GST; large carriers; small tags and cut ends)
chain: MAGPGSTGGQIGAAALAGGARSKVAPSVDFDHSCSDSVEYLTLNFGPFETVHRWRRLPPCDEFVGARRSKHTVVAYKDAIYVFGGDNGKTMLNDLLRFDVKDCSWCRAFTTGTPPAPRYHHSAVVYGSSMFVFGGYTGDIYSNSNLKNKNDLFEYKFATGQWTEWKIEGRLPVARSAHGATVYSDKLWIFAGYDGNARLNDMWTIGLQDRELTCWEEVAQSGEIPPSCCNFPVAVCRDKMFVFSGQSGAKITNNLFQFEFKDKTWTRIPTEHLLRGSPPPPQRRYGHTMVAFDRHLYVFGGAADNTLPNELHCYDVDFQTWEVVQPSSDSEVGGAEVPERACASEEVPTLTYEERVGFKKSRDVFGLDFGTTSAKQPTQPASELPSGRLFHAAAVISDAMYIFGGTVDNNIRSGEMYRFQFSCYP
binds: EGFR-GFP [11]
